Results are given in words; binding and its absence hold for the method and conditions named. Binding seen in cells or lysates may run through a third protein. Some entries that bind do so weakly or less than the wild type.

Chains of the proteins cited; added tags and fusions are not shown.
UniProt O95832: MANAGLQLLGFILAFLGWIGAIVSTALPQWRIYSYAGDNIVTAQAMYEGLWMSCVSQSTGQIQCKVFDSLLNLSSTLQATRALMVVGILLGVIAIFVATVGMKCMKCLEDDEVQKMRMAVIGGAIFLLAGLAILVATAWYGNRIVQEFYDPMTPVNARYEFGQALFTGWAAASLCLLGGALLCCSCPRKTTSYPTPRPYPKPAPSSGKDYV
UniProt Q07157: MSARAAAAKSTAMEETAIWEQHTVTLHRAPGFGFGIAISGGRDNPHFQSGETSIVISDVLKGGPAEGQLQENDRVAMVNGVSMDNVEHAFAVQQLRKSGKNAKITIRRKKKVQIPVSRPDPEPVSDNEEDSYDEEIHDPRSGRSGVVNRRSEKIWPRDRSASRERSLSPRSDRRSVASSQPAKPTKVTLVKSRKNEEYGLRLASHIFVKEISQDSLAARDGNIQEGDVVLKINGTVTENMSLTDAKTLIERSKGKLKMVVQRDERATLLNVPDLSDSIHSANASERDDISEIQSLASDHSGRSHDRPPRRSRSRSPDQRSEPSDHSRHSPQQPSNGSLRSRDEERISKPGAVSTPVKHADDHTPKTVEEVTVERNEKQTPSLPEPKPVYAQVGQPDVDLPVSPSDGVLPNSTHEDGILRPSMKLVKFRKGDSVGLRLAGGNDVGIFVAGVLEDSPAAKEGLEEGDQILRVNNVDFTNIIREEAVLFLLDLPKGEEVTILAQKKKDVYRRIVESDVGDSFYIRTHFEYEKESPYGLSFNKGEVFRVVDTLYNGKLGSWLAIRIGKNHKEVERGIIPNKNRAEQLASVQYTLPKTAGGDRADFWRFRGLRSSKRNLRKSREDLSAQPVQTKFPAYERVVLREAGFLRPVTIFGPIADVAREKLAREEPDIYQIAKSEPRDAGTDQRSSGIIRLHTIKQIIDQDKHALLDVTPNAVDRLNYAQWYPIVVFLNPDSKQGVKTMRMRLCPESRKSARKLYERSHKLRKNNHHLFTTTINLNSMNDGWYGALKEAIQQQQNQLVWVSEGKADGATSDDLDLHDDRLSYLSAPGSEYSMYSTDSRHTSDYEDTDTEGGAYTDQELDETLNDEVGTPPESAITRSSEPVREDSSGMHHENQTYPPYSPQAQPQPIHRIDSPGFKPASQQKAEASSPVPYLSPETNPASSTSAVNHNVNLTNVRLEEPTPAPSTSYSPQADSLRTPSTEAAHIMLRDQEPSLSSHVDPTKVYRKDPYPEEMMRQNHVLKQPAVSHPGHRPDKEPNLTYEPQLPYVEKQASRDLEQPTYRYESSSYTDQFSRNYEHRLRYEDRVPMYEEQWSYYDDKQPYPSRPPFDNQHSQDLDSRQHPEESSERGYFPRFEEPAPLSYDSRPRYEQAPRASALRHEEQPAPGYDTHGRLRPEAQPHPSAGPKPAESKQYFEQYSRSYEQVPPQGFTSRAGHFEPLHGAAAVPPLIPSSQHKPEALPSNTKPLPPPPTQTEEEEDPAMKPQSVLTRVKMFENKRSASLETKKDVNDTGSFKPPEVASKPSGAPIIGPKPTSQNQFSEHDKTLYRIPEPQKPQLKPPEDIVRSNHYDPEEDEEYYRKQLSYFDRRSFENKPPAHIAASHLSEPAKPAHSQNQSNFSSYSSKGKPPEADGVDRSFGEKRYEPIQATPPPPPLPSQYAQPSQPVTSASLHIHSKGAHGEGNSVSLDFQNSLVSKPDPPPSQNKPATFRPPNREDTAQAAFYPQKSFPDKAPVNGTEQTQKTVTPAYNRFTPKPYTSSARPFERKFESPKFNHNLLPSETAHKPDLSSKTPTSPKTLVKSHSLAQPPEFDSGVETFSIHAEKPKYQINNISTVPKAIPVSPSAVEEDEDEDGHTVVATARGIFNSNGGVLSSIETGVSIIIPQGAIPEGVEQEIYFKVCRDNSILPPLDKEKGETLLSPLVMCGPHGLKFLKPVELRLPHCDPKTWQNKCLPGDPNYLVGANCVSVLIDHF

For experiment [1], the target named is T1, occludin (human (endogenous in Caco-2; cell line not named for the co-IP)) (UniProt Q16625).
T1 sequence: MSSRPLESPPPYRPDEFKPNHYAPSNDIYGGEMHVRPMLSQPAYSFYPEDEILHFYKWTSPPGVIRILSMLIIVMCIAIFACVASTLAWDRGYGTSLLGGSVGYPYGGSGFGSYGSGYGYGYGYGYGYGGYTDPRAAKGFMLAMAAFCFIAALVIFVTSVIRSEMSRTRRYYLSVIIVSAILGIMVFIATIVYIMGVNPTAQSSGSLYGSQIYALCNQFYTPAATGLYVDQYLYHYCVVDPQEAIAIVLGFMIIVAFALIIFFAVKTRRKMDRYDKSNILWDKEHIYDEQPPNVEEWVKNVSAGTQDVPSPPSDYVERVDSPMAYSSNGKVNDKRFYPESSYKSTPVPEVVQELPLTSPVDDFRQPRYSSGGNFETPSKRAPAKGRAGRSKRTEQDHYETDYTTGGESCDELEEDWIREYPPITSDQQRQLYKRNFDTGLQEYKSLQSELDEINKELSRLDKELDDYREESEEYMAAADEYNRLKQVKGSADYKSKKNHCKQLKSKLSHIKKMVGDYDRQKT
Kind of experiment: co-IP; endogenous proteins; pre-cleared cell extracts (1 mg protein) in 50 mM Tris-HCl pH 7.4, 150 mM NaCl, 1 mM EDTA, 1% NP-40; IP with antibodies to E-cadherin, claudin-1 or occludin overnight at 4°C, Protein G beads; control IP with IgG/unrelated serum; Western blot. A general note: Immunoblotting shows a protein as a band on a membrane.

For experiment [2], the target named is claudin-1 (human (endogenous in Caco-2; cell line not named for the co-IP)) (UniProt O95832). The description is as above.

In the case of arpin (from UniProt Q7Z6K5 1-226), the binding result in experiment [1] and in experiment [2] was “binds” in each case.
Turning to “zonula occludens 1 (ZO-1) (from UniProt Q07157 1-1748)”, the binding entry in experiment [1] was “binds”.
